Patent US20250236683A1
These are yes or no findings as the source states them, for the method shown. Some binding calls cover weakened binding; strength is not graded here.

The chains behind the UniProt entries cited, without tags or fusion partners. Where a name states a change or a piece, a line headed by the entry shows the natural chain unless it says otherwise.
UniProt Q9Y2J8: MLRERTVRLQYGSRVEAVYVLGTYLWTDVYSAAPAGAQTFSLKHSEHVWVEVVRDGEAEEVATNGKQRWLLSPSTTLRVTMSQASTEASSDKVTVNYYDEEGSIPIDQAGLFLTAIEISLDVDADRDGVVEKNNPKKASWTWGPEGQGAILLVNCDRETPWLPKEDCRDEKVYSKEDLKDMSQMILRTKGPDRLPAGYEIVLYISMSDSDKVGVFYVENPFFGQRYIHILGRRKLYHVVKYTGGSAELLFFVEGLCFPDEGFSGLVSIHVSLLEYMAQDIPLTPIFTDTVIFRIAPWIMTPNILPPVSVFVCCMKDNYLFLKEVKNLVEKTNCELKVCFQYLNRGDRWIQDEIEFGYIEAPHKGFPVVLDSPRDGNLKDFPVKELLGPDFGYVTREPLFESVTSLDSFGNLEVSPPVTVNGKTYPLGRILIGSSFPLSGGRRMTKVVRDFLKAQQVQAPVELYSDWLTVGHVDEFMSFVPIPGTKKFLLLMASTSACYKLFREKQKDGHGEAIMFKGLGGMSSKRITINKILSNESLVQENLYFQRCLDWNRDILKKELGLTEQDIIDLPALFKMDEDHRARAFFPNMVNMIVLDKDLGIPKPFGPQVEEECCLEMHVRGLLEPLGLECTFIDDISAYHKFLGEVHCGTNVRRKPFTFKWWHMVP

Molecular target: human PAD2 protein (human) (UniProt Q9Y2J8)
Assay: SPR (Biacore 8K), antibody captured on Protein A chip, human PAD2 as analyte, single-cycle, 1:1 model

binding: binds
B1: CK1-14 (antibody, human IgG1, lambda, V domains shown)
VH: AVTLDESGGGLQTPGGALSLVCKASGFTFTRYAIQWVRQAPGKGLEWVGVINSGGRTLYAPAVKGRATISRDNGQSTVRLQLNNLRAEDTAIYYCVRGGYAYGIETWGHGTEVIVSS
VL: ALTQPSSVSANPGETVKITCSGSRYDYGWYQQKSPGSAPVTLIYYNNKRPSDIPSRFSGSKSGSTHTLTITGVQADDEAVYFCGSTDTSNDIFGAGTTLTVLG
